Test results published in the supplement of paper PMC4604168 (melanoma cell lines).
The other results are listed elsewhere or left out. Many values rest on one well or one pass, so single values are uncertain.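 The apoptosis fraction was the count of cleaved-PARP antibody-stained nuclei relative to all DNA-stained nuclei, imaged in 1,536-well plates. Screening doses were set so most cells survived, and baseline and induced cleaved-PARP levels vary greatly across cell lines.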

Tested on: G361
Assay: cleaved PARP positive nuclei fraction relative to DMSO control; melanoma cells; higher = more apoptosis
Settings: library dose: low library concentration; 72 h

Compound	cleaved PARP positive nuclei fraction [%]
NC1(c2ccc(-c3nc4ccn5c(=O)[nH]nc5c4cc3-c3ccccc3)cc2)CCC1 + CC(C)CCN1c2nc(Nc3cc(F)c(O)c(F)c3)ncc2N(C)C(=O)C1C [BID1870] (first compound 0.4 µM, partner dose 0.2 µM)	136
CC(=O)O[C@@]12CO[C@@H]1C[C@H](O)[C@@]1(C)C(=O)[C@H](O)C3=C(C)[C@@H](OC(=O)[C@H](O)[C@@H](NC(=O)OC(C)(C)C)c4ccccc4)C[C@@](O)([C@@H](OC(=O)c4ccccc4)[C@H]21)C3(C)C [Docetaxel] + CCCCCCCCCCCC1=C(O)C(=O)C=C(O)C1=O [Embelin] (first compound 0.0001 µM, partner dose 1.2 µM)	806
Cn1cnc2c(F)c(Nc3ccc(Br)cc3Cl)c(C(=O)NOCCO)cc21 [selumetinib] + COc1ccc(COc2ccc(Cc3cnc(N)nc3N)cc2OC)cc1 [GW2580] (first compound 0.015 µM, partner dose 1 µM)	159
C[C@]1(O)C[C@@H](c2nc(-c3ccc4ccc(-c5ccccc5)nc4c3)c3c(N)nccn32)C1 + O=C(O)C(=O)Nc1sc2c(c1C(=O)O)CCNC2 [TCS401] (first compound 0.4 µM, partner dose 1.66667 µM)	150
CCN(CC)CCNC(=O)c1c(C)[nH]c(/C=C2\C(=O)Nc3ccc(F)cc32)c1C [sunitinib] + c1cc(-c2cnn3cc(-c4ccc(OCCN5CCCCC5)cc4)cnc23)ccn1 [Dorsomorphin] (first compound 0.4 µM, partner dose 0.4 µM)	143
CC1(C)CCC(c2ccc(Cl)cc2)=C(CN2CCN(c3ccc(C(=O)NS(=O)(=O)c4ccc(N[C@H](CCN5CCOCC5)CSc5ccccc5)c(S(=O)(=O)C(F)(F)F)c4)cc3)CC2)C1 + COc1cc(N2CCC(N3CCN(C)CC3)CC2)ccc1Nc1ncc(Cl)c(Nc2ccccc2S(=O)(=O)C(C)C)n1 [NVP-TAE684] (first compound 0.4 µM, partner dose 0.08 µM)	152
Cn1sc(=O)n(Cc2ccccc2)c1=O + CCN(CC)CCCCNc1ncc2cc(-c3cc(OC)cc(OC)c3)c(NC(=O)NC(C)(C)C)nc2n1 [PD173074] (first compound 0.4 µM, partner dose 0.1 µM)	67.7
CCN(CC)CCNC(=O)c1c(C)[nH]c(/C=C2\C(=O)Nc3ccc(F)cc32)c1C [sunitinib] + CCCCCCCCCCCC1=C(O)C(=O)C=C(O)C1=O [Embelin] (first compound 0.4 µM, partner dose 1.2 µM)	63.1
CN(c1ncccc1CNc1nc(Nc2ccc3c(c2)CC(=O)N3)ncc1C(F)(F)F)S(C)(=O)=O + COc1ccc(-c2ccc3c(N4CCOCC4)nc(N4C[C@@H](C)O[C@@H](C)C4)nc3n2)cc1CO [KU0063794] (first compound 0.08 µM, partner dose 0.02 µM)	165
CCN(CC)CCNC(=O)c1c(C)[nH]c(/C=C2\C(=O)Nc3ccc(F)cc32)c1C [sunitinib] + CCN(CC)CCCCNc1ncc2cc(-c3cc(OC)cc(OC)c3)c(NC(=O)NC(C)(C)C)nc2n1 [PD173074] (first compound 0.4 µM, partner dose 0.1 µM)	139
Cn1cnc2c(F)c(Nc3ccc(Br)cc3Cl)c(C(=O)NOCCO)cc21 [selumetinib] + O=C(Nc1ccccc1)c1cc([N+](=O)[O-])ccc1Cl [GW9662] (first compound 0.015 µM, partner dose 2 µM)	147
C[C@@H](N)c1ccc(C(=O)Nc2ccnc3[nH]ccc23)cc1 + COc1ccc2c(c1)CCC1C2CCC2(C)C(NCCCCCCN3C(=O)C=CC3=O)CCC12 [U73122] (first compound 0.4 µM, partner dose 0.4 µM)	135
CC(=O)O[C@@]12CO[C@@H]1C[C@H](O)[C@@]1(C)C(=O)[C@H](O)C3=C(C)[C@@H](OC(=O)[C@H](O)[C@@H](NC(=O)OC(C)(C)C)c4ccccc4)C[C@@](O)([C@@H](OC(=O)c4ccccc4)[C@H]21)C3(C)C [Docetaxel] + COc1ccc(-c2ccc3c(N4CCOCC4)nc(N4C[C@@H](C)O[C@@H](C)C4)nc3n2)cc1CO [KU0063794] (first compound 0.0001 µM, partner dose 0.02 µM)	409
CS(=O)(=O)c1ccc(C(=O)Nc2ccc(Cl)c(-c3ccccn3)c2)c(Cl)c1 [vismodegib] + COc1cc(N2CCC(N3CCN(C)CC3)CC2)ccc1Nc1ncc(Cl)c(Nc2ccccc2S(=O)(=O)C(C)C)n1 [NVP-TAE684] (first compound 1 µM, partner dose 0.08 µM)	281
NC(=O)c1ccc(N(C(N)=O)c2c(F)cccc2F)nc1-c1ccc(F)cc1F + O=C(O)C(=O)Nc1sc2c(c1C(=O)O)CCNC2 [TCS401] (first compound 0.4 µM, partner dose 1.66667 µM)	101
CCN(CC)CCNC(=O)c1c(C)[nH]c(/C=C2\C(=O)Nc3ccc(F)cc32)c1C [sunitinib] + CC(C)CCN1c2nc(Nc3cc(F)c(O)c(F)c3)ncc2N(C)C(=O)C1C [BID1870] (first compound 0.4 µM, partner dose 0.2 µM)	141

A portion from further up, for reference:
Compound	cleaved PARP positive nuclei fraction [%]
CCN(CC)CCNC(=O)c1c(C)[nH]c(/C=C2\C(=O)Nc3ccc(F)cc32)c1C [sunitinib] + CCCCCCCCCCCC1=C(O)C(=O)C=C(O)C1=O [Embelin] (first compound 0.4 µM, partner dose 1.2 µM)	63.1
CN(c1ncccc1CNc1nc(Nc2ccc3c(c2)CC(=O)N3)ncc1C(F)(F)F)S(C)(=O)=O + COc1ccc(-c2ccc3c(N4CCOCC4)nc(N4C[C@@H](C)O[C@@H](C)C4)nc3n2)cc1CO [KU0063794] (first compound 0.08 µM, partner dose 0.02 µM)	165
CCN(CC)CCNC(=O)c1c(C)[nH]c(/C=C2\C(=O)Nc3ccc(F)cc32)c1C [sunitinib] + CCN(CC)CCCCNc1ncc2cc(-c3cc(OC)cc(OC)c3)c(NC(=O)NC(C)(C)C)nc2n1 [PD173074] (first compound 0.4 µM, partner dose 0.1 µM)	139
